Reference: PubChem BioAssay AID330 (DTP/NCI, 2004)
The list shows only some results of the screen, not a fair sample: it is rich in T/C values a quarter to a half above the control, in often repeated tests (any T/C) and in doses without a T/C. Other doses and runs of a compound stand elsewhere. T/C gives the treated animals as a percentage of the vehicle group. Some doses have a count of surviving animals in place of a T/C: the source files T/C as zero there, which appears to mark a toxic dose or a test without result, not a measured value. Some doses without a T/C left all or most animals alive at the check, yet need not have been tolerated: survival well below the control is almost never listed, so the zero probably covers shortened survival too. Counts of survivors are from the toxicity check (mostly the fifth day) where no day follows; animals may have died later. Schedules are NCI's codes, read here as Q, the interval in days (D) or hours (H), X, the number of doses. Some entries hold several experiments; their values stand side by side, smallest first. For survival time, the PubChem record calls one and a half times the control and up active, and a quarter to a half above the control has no call in these data; cut-offs in other NCI protocols can differ. Marks such as (2×) give the number of equal values in this list. Some T/C values carry the count of animals alive at the toxicity check (mostly the fifth day); where none is given, no animal had died by that day.

Test system: P388 leukemia ip, CD2F1 mice, survival T/C
Test: NCI In Vivo Anticancer Drug Screen. Data for tumor model P388 Leukemia (intraperitoneal) in CD2F1 (CDF1) mice
Settings: T/C endpoint: median survival time, higher T/C = longer survival
[1] = dose: 200.0 mg/kg/injection, schedule: Q01DX005 (ip), vehicle: Klucel (hydroxypropylcellulose) (HPC)

With COc1nc(C(Cl)(Cl)Cl)c(Cl)c(OC)c1Cl the T/C (dose: 37.0 mg/kg/injection, schedule: Q01DX005 (ip), vehicle: Klucel (hydroxypropylcellulose) (HPC), evaluated on day 30) was 109 and 141 % of control, the T/C (dose: 37.0 mg/kg/injection, schedule: Q01DX005 (ip), vehicle: Klucel (hydroxypropylcellulose) (HPC), evaluated on day 45) was 122 and 130 % of control and the T/C (dose: 37.0 mg/kg/injection, schedule: Q01DX005 (ip), vehicle: Klucel (hydroxypropylcellulose) (HPC), evaluated on day 60) was 119 % of control. The T/C (dose: 40.0 mg/kg/injection, schedule: Q01DX005 (ip), vehicle: other, evaluated on day 30) was 138 % of control, the T/C (dose: 40.0 mg/kg/injection, schedule: Q01DX005 (ip), vehicle: other, evaluated on day 45) was 125 % of control and the T/C (dose: 40.0 mg/kg/injection, schedule: Q01DX005 (iv), vehicle: other) was 127 % of control. For the same compound, the T/C (dose: 50.0 mg/kg/injection, schedule: Q01DX005 (ip), vehicle: Klucel (hydroxypropylcellulose) (HPC), evaluated on day 30) was 100, 100 [4 of 6 alive], 101, 118, 128, 130 % of control, the T/C (dose: 50.0 mg/kg/injection, schedule: Q01DX005 (ip), vehicle: Klucel (hydroxypropylcellulose) (HPC), evaluated on day 45) was 115, 116, 117, 125, 130, 132, 133, 135 % of control and the T/C (dose: 50.0 mg/kg/injection, schedule: Q01DX005 (ip), vehicle: Klucel (hydroxypropylcellulose) (HPC), evaluated on day 46) was 120 % of control. The T/C (dose: 50.0 mg/kg/injection, schedule: Q01DX005 (ip), vehicle: Klucel (hydroxypropylcellulose) (HPC), evaluated on day 60) was 124 and 126 % of control, the T/C (dose: 60.0 mg/kg/injection, schedule: Q01DX005 (ip), vehicle: other, evaluated on day 30) was 141 % of control and the T/C (dose: 60.0 mg/kg/injection, schedule: Q01DX005 (ip), vehicle: other, evaluated on day 45) was 138 % of control. For the same compound, the T/C (dose: 67.0 mg/kg/injection, schedule: Q01DX005 (ip), vehicle: Klucel (hydroxypropylcellulose) (HPC), evaluated on day 30) was 110 and 155 % of control, the T/C (dose: 67.0 mg/kg/injection, schedule: Q01DX005 (ip), vehicle: Klucel (hydroxypropylcellulose) (HPC), evaluated on day 45) was 111, 121, 132, 137, 140, 146, 148, 150 % of control and the T/C (dose: 67.0 mg/kg/injection, schedule: Q01DX005 (ip), vehicle: Klucel (hydroxypropylcellulose) (HPC), evaluated on day 46) was 120 % of control. The T/C (dose: 67.0 mg/kg/injection, schedule: Q01DX005 (ip), vehicle: Klucel (hydroxypropylcellulose) (HPC), evaluated on day 60) was 142 and 153 % of control, the T/C (dose: 90.0 mg/kg/injection, schedule: Q01DX005 (ip), vehicle: Klucel (hydroxypropylcellulose) (HPC), evaluated on day 30) was 111, 157, 160, 173 % of control and the T/C (dose: 90.0 mg/kg/injection, schedule: Q01DX005 (ip), vehicle: Klucel (hydroxypropylcellulose) (HPC), evaluated on day 45) was 103, 130, 134, 136, 151, 153, 155, 158 % of control (2×). The T/C (dose: 90.0 mg/kg/injection, schedule: Q01DX005 (ip), vehicle: Klucel (hydroxypropylcellulose) (HPC), evaluated on day 46) was 116 % of control, the T/C (dose: 90.0 mg/kg/injection, schedule: Q01DX005 (ip), vehicle: Klucel (hydroxypropylcellulose) (HPC), evaluated on day 60) was 159 and 167 % of control and the T/C (dose: 90.0 mg/kg/injection, schedule: Q01DX005 (ip), vehicle: other) was 149 % of control [9 of 10 alive]. The T/C (dose: 90.0 mg/kg/injection, schedule: Q01DX005 (iv), vehicle: other) was 144 % of control, the T/C (dose: 100.0 mg/kg/injection, schedule: Q01DX005 (ip), vehicle: Klucel (hydroxypropylcellulose) (HPC)) was 115, 121, 156, 163 % of control and the T/C (dose: 120.0 mg/kg/injection, schedule: Q01DX005 (ip), vehicle: Klucel (hydroxypropylcellulose) (HPC), evaluated on day 45) was 98, 145, 152, 158, 179, 191 % of control. For the same compound, the T/C (dose: 120.0 mg/kg/injection, schedule: Q01DX005 (ip), vehicle: Klucel (hydroxypropylcellulose) (HPC), evaluated on day 46) was 134 % of control, the T/C (dose: 120.0 mg/kg/injection, schedule: Q01DX005 (ip), vehicle: Klucel (hydroxypropylcellulose) (HPC), evaluated on day 60) was 177 % of control and the T/C (dose: 135.0 mg/kg/injection, schedule: Q01DX005 (ip), vehicle: Klucel (hydroxypropylcellulose) (HPC)) was 131 % of control. For the same compound, the T/C [1] was 102, 115, 147, 194 % of control, the survivor count [1] was 9 of 10 and the T/C (dose: 202.3 mg/kg/injection, schedule: Q01DX005 (ip), vehicle: Klucel (hydroxypropylcellulose) (HPC)) was 138 % of control. The survivor count (dose: 300.0 mg/kg/injection, schedule: Q01DX005 (ip), vehicle: Klucel (hydroxypropylcellulose) (HPC)) was 9 of 10, the survivor count (dose: 303.3 mg/kg/injection, schedule: Q01DX005 (ip), vehicle: Klucel (hydroxypropylcellulose) (HPC)) was 8 of 10 and the survivor count (dose: 400.0 mg/kg/injection, schedule: Q01DX005 (ip), vehicle: Klucel (hydroxypropylcellulose) (HPC)) was 4 of 6.
Cc1cc(N=Cc2cccs2)ccc1Br was tested, and the T/C (dose: 200.0 mg/kg/injection, schedule: Q01DX009 (ip), vehicle: Klucel (hydroxypropylcellulose) (HPC)) was 129 % of control.
In the case of COC(=O)Nc1nc2ccc(C(=O)c3ccc(F)cc3)cc2[nH]1, the T/C (dose: 25.0 mg/kg/injection, schedule: Q01DX009 (ip), vehicle: saline with Tween-80) is reported as 140 % of control, the T/C (dose: 50.0 mg/kg/injection, schedule: Q01DX009 (ip), vehicle: saline with Tween-80) is reported as 147 % of control and the survivor count (dose: 200.0 mg/kg/injection, schedule: Q01DX009 (ip), vehicle: saline with Tween-80) is reported as 4 of 6 and 6 of 6.
In the case of O=NN(CCCl)C(=O)Nc1ccc(Br)cc1, the T/C (dose: 12.5 mg/kg/injection, schedule: Q01DX009 (ip), vehicle: saline) is reported as 134 % of control, the T/C (dose: 25.0 mg/kg/injection, schedule: Q01DX009 (ip), vehicle: saline) is reported as 134 % of control and the survivor count (dose: 100.0 mg/kg/injection, schedule: Q01DX009 (ip), vehicle: suspension in saline) is reported as 6 of 6.
With CC1(C)C=C(C(Br)c2ccccc2)C(=O)c2ccccc21 (stereo unspecified) the T/C (dose: 66.0 mg/kg/injection, schedule: Q01DX009 (ip), vehicle: other) was 128 % of control, the T/C (dose: 100.0 mg/kg/injection, schedule: Q01DX009 (ip), vehicle: other) was 127 and 128 % of control and the survivor count (dose: 400.0 mg/kg/injection, schedule: Q01DX009 (ip), vehicle: other) was 3 of 6.
With COc1cc2c(c(OC)c1OC)-c1cccc(=O)cc1C(NC(C)=O)CC2 (stereo unspecified) the T/C (dose: 2.5 mg/kg/injection, schedule: Q01DX009 (ip), vehicle: Klucel (hydroxypropylcellulose) (HPC)) was 135 and 136 % of control and the survivor count (dose: 40.0 mg/kg/injection, schedule: Q01DX009 (ip), vehicle: Klucel (hydroxypropylcellulose) (HPC)) was 1 of 6.
CC(=O)O[C@@H]1CO[C@H]2O[C@H]3[C@@H](C(C=O)=C[C@H](O)[C@@H]4C5=C(C(C)C)CC[C@]5(C)CC[C@@]34C)[C@@]2(O)C1=O was tested, and the T/C (dose: 1.56 mg/kg/injection, schedule: Q01DX009 (ip), vehicle: Klucel (hydroxypropylcellulose) (HPC)) was 139 % of control, the survivor count (dose: 12.5 mg/kg/injection, schedule: Q01DX009 (ip), vehicle: Klucel (hydroxypropylcellulose) (HPC)) was 0 of 6 and the survivor count (dose: 25.0 mg/kg/injection, schedule: Q01DX009 (ip), vehicle: Klucel (hydroxypropylcellulose) (HPC)) was 3 of 6. For the same compound, the survivor count (dose: 50.0 mg/kg/injection, schedule: Q01DX009 (ip), vehicle: Klucel (hydroxypropylcellulose) (HPC)) was 0 of 6.
Cn1c2ccccc2c(=Nc2ccc(S(=O)(=O)N=C(N)N)cc2)c2ccccc21 was tested, and the survivor count (dose: 200.0 mg/kg/injection, schedule: Q01DX005 (ip), vehicle: saline with Tween-80) was 3 of 6.
For S=P(c1ccccc1)(N1CC1)N1CC1, the survivor count (dose: 200.0 mg/kg/injection, schedule: Q04DX003 (ip), vehicle: saline with Tween-80) was 5 of 6 and the survivor count (dose: 400.0 mg/kg/injection, schedule: Q04DX003 (ip), vehicle: saline with Tween-80) was 3 of 6.
With Cc1ccc(C2(c3ccccc3)OC(=O)c3ccccc32)cc1 (stereo unspecified) the survivor count (dose: 50.0 mg/kg/injection, schedule: Q01DX009 (ip), vehicle: saline sonified) was 6 of 6 and the survivor count (dose: 100.0 mg/kg/injection, schedule: Q01DX009 (ip), vehicle: saline sonified) was 6 of 6.
COc1ccc(NC(=S)C#N)cc1 was tested, and the survivor count (dose: 120.0 mg/kg/injection, schedule: Q01DX005 (ip), vehicle: saline with Tween-80) was 3 of 6 and the survivor count (dose: 240.0 mg/kg/injection, schedule: Q01DX005 (ip), vehicle: saline with Tween-80) was 1 of 6.
